# Primary screen of a compound library

Source: ChEMBL document CHEMBL3988442, “University of Dundee, Small-Polar-MMV Screening Library” (2021).

T. brucei: 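Whole-parasite assay of Trypanosoma brucei over 72 hours; the read-out is not stated. Compounds at 30 µM. Direction is inferred from retests: higher values go with stronger inhibition. Values scatter widely below zero; nearly all retest evidence comes from the higher of the two concentrations used. Of about 64,000 compounds tested this way, about 940 (1.5%) reached 50% or more in at least one test.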
Leishmania in macrophages: 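Cell assay of Leishmania donovani living inside macrophages; the read-out is not stated. Compounds at 30 µM. Direction is inferred from retests: higher values go with stronger inhibition. Size under these conditions: about 69,000 compounds, about 1,000 of them at 50% or above in at least one test.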
Toxoplasma: 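Assay of Toxoplasma gondii numbers, read through their beta-galactosidase reporter with a colour substrate. Compounds at 10 µM. Higher reads as fewer parasites (inferred from which compounds were picked for retests). Size under these conditions: about 67,000 compounds, about 260 of them at 50% or above in at least one test.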

Values are the deposited “Percent Effect”, in %.
How 0% and 100% were set is not recorded. Most values in the screen are low, and negative values occur.
This is an unselected part of the compounds tested.
Two or more numbers in one place are separate tests of the same structure; such repeats can differ widely.

CCOC1CCN(C(=O)NCc2ccc(C(=O)N(C)C(C)C)cc2)CC1 gave T. brucei: -30.3%; Leishmania in macrophages: -2.953%; Toxoplasma: 17.43%. O=C(O)C(F)(F)F.O=C(O)C(F)(F)F.O=C(c1ccncc1)N1CCCC2(CCN(c3cccnc3)C2=O)C1 (configuration not stated) read T. brucei: -70.16%; Leishmania in macrophages: 27.62%; Toxoplasma: 3.38%. Result for Cc1cnc(C(=O)NCC2CCOc3ccccc3C2)cn1 (configuration not stated) was T. brucei: -18.39%; Leishmania in macrophages: -45.04%; Toxoplasma: -6.288%. For CC(C)Nc1nc2c(s1)C(=O)CN(C)C2 the result was T. brucei: -15.68%; Leishmania in macrophages: 13.22% and 3.831%; Toxoplasma: 5.322%. For c1cncc(-c2noc(CNC3CCc4ncnn4C3)n2)c1 (configuration not stated) the result was Leishmania in macrophages: 14.9%; Toxoplasma: 25.02%.

With Cc1ccc2cccc(S(=O)(=O)N(C)CC3CCN(C)CC3)c2n1 the screen gave T. brucei: -4.949%; Leishmania in macrophages: -10.51%; Toxoplasma: -5.607%. CCN(CC1CCCO1)S(=O)(=O)N1CCCCCC1 (configuration not stated) gave T. brucei: -33.06%; Leishmania in macrophages: 6.804%; Toxoplasma: -7.449%. For O=C(CN1CCCC1Cn1cncn1)Nc1nncs1 (configuration not stated) the result was T. brucei: -34.08%; Leishmania in macrophages: -9.293%; Toxoplasma: 4.119%. O=C(Cn1cnc(NC(=O)c2ccccn2)n1)NCc1ccccc1 read T. brucei: 1.998%; Leishmania in macrophages: 19.62%. Result for Cc1cc(C(=O)N2CCNC(c3ccccc3)C2)c2ccc(F)cc2n1 (configuration not stated) was T. brucei: 20.66%; Leishmania in macrophages: 29.99%; Toxoplasma: -2.915%.

Result for [H][C@@]12C[C@@H](Oc3cccnc3)CN1CCN(C(=O)c1ccoc1C)C2 was T. brucei: -1.109%; Leishmania in macrophages: 35.41%; Toxoplasma: 4.428%. CC1(C)OC(=O)N(CCCOc2ccc(F)cc2)C1=O read T. brucei: -41.68%; Leishmania in macrophages: 3.054%; Toxoplasma: -8.258%. Result for CC(c1ccccc1)n1c(SCC(=O)O)nnc1-c1ccn[nH]1 (configuration not stated) was T. brucei: -33.97%; Leishmania in macrophages: -17.76%; Toxoplasma: 6.329%. Result for COc1ccc(OC)c(S(=O)(=O)NCC2(OC)CCSC2)c1 (configuration not stated) was T. brucei: -11.04%; Leishmania in macrophages: 9.821%; Toxoplasma: -5.493%. Cc1ccn2ncc(C(=O)N3CCCC(c4cc(C)[nH]n4)C3)c2n1 (configuration not stated) gave T. brucei: 2.985%; Leishmania in macrophages: 26.58%; Toxoplasma: 4.299%.

O=C(CCc1ccccc1F)NS(=O)(=O)c1ccc2c(c1)OCCO2 read T. brucei: -12.2%; Leishmania in macrophages: -9.315%; Toxoplasma: 11.37%. Result for NC(=O)CN1CCCN(C(=O)Cc2ccc(F)cc2)CC1 was T. brucei: 14.56%; Leishmania in macrophages: 24.11%; Toxoplasma: 12.33%. O=C(O)C(F)(F)F.[H][C@@]12C[C@@H](c3nc(C)no3)CN(CC3CCCC3)[C@]1([H])CCO2 gave T. brucei: -3.049%; Leishmania in macrophages: 44.23%; Toxoplasma: -0.2129%. NC(=O)c1cncc(N2CCN(Cc3ccc(F)cc3Cl)CC2)n1 read T. brucei: -50.56%; Leishmania in macrophages: 12.24%; Toxoplasma: -0.2528%. With Cc1cc2n(n1)CC(CNCc1ccccc1-n1cccn1)CN2 (configuration not stated) the screen gave T. brucei: 7.733%; Leishmania in macrophages: 15.77%; Toxoplasma: -4.77%.

For O=C(O)C(F)(F)F.O=C(O)C(F)(F)F.O=C1CC(c2ccncc2)C2(CCN(CC3CC3)CC2)N1 (configuration not stated) the result was T. brucei: -13.37%; Leishmania in macrophages: -1.298%; Toxoplasma: -8.031%. With CCC1CN(C(=O)c2ccccc2N2CCOCC2)CCN1C(C)C (configuration not stated) the screen gave T. brucei: 2.361%; Leishmania in macrophages: -14.06%; Toxoplasma: -5.606%. Cc1ccc(CN(CCCn2ccnc2)Cc2ccccc2O)s1.O=C(O)CC(O)(CC(=O)O)C(=O)O gave T. brucei: 4.869%; Leishmania in macrophages: 42.47% and -1.659%; Toxoplasma: -8.716%. For Cc1cc(N2CCC(Cc3ncccn3)C2)ncn1 (configuration not stated) the result was Leishmania in macrophages: 18.86%. O=C(NCCc1nnc2n1CCC2)NCC1(c2ccccc2F)CC1 gave T. brucei: -6.982%; Leishmania in macrophages: 6.319%; Toxoplasma: -3.711%.

With CC1(C)CN(C(=O)c2ncc(F)cc2F)CCC1(O)CN1CCOCC1 (configuration not stated) the screen gave T. brucei: -21.68%; Leishmania in macrophages: 11.63%; Toxoplasma: -9.411%. CN(C(=O)CC1=CCCCC1)C1CCCN(CCc2ccccc2)C1 (configuration not stated) gave T. brucei: -44.64%; Leishmania in macrophages: -14.61%; Toxoplasma: -5.855%. CCn1ncc2c1C(COCC1CC1)CN(S(=O)(=O)N(C)C)C2.O=C(O)C(F)(F)F (configuration not stated) gave T. brucei: 21.62%; Leishmania in macrophages: 12.96%; Toxoplasma: 12.68%. For CCc1cc(=O)[nH]c(SCc2ccccn2)n1 the result was T. brucei: -20.11%; Leishmania in macrophages: -20.44%; Toxoplasma: -1.434%. With Cc1cc(CN2CCN(C(=O)C(C(C)C)n3cncn3)CC2)on1 (configuration not stated) the screen gave T. brucei: -7.191%; Leishmania in macrophages: 31%; Toxoplasma: 10.11%.